In article PMC4287435 one finds binding data, which are given here for three molecules.

Experiment [1] concerns the target T1, His-tagged ROS1 (His-ROS1) (Arabidopsis) (UniProt Q9SJQ6).
T1 sequence: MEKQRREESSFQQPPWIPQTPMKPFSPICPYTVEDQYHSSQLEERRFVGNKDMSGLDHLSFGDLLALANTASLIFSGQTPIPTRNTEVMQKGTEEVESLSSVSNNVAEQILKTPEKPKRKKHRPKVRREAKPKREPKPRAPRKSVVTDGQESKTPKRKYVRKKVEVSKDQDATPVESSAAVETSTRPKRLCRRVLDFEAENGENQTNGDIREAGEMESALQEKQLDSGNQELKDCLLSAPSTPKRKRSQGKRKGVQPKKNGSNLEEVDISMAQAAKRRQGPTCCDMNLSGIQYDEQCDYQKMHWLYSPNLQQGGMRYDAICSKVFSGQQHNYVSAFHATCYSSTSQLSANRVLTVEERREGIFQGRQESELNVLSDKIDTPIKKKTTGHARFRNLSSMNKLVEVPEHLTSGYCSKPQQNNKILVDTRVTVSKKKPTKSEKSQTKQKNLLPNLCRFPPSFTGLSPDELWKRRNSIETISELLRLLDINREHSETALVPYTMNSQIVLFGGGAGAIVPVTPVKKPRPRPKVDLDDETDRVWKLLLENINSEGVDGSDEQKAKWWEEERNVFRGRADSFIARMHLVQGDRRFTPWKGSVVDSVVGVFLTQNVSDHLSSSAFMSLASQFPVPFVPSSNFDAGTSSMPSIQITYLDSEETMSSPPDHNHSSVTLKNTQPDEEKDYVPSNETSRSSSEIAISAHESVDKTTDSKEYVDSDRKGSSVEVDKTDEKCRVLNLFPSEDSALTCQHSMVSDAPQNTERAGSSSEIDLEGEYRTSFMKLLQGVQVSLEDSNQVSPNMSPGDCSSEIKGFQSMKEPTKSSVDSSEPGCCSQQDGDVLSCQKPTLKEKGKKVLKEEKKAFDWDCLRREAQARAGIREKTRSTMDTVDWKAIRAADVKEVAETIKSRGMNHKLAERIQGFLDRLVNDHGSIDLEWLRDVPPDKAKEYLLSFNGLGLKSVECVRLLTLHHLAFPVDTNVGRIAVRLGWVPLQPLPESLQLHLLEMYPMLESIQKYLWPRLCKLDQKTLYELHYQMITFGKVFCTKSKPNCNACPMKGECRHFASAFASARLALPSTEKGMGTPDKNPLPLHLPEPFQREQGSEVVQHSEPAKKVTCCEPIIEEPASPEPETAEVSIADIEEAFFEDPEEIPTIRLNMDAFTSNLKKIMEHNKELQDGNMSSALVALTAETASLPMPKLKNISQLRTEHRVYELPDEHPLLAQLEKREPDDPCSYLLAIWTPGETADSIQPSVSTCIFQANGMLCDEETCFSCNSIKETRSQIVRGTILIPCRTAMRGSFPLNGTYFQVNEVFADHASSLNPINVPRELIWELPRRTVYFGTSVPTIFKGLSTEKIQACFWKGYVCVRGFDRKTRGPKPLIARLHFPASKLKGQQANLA
Kind of experiment: native gel or EMSA; labelled 1-nt gapped DNA duplex (10 nM) with ROS1 (75 nM) and MBP-APE1L (0-1000 nM), 15 min at 25°C, 10 mM Tris HCl pH 8.0, 1 mM DTT, 10 µg/ml BSA; 0.2% agarose gel; ternary complex with DNA; supershift with anti-MBP; both purified. (In general: Mobility shift assays separate free from complexed probe on a gel.)

Experiment [2] deals with T2, MBP-ROS1 (Arabidopsis) (UniProt Q9SJQ6).
T2 sequence: T1 sequence
Described as above.

Experiment [3] addresses T3, ROS1-Nluc (Arabidopsis) (UniProt Q9SJQ6).
T3 sequence: T1 sequence
The experiment can be described thus: split reporter; firefly luciferase complementation imaging in Nicotiana benthamiana leaves; APE1L-Cluc and ROS1-Nluc co-transformed with p19; imaged after 3 d with 1 mM luciferin.

Experiment [4] has as its target T4, MBP-APE1L fusion protein (Arabidopsis APE1L, full length) (Arabidopsis) (UniProt Q5XF07).
T4 sequence: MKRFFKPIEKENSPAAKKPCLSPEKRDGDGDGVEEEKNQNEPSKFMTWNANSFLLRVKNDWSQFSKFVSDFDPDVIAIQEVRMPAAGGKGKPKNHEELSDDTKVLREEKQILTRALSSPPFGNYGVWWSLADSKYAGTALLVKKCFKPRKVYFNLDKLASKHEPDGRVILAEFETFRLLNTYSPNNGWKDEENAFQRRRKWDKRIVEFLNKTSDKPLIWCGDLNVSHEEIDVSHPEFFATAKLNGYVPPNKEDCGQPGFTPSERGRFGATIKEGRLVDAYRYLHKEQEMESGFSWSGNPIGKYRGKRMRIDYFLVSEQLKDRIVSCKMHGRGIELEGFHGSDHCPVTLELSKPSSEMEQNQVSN
Kind of experiment: pull-down; MBP or MBP-APE1L (200 pmol) bound to amylose resin; His-ROS1 (15 pmol) incubated 1 h at 25°C in Binding Buffer (10 mM Tris pH 8.0, 1 mM DTT, 0.01 mg/ml BSA); Western blot with anti-His6; both purified. Background: A western blot detects proteins with antibodies after separation by electrophoresis.

Results are given in words; binding and its absence hold for the method and conditions named. For some of these results: In cells and extracts the contact can be indirect. Some entries that bind do so weakly or less than the wild type. Tags and fused reporters may be left off the sequences shown.

B1: MBP-APE1L fusion protein (Arabidopsis APE1L, full length) (enzyme, UniProt Q5XF07 1-364)
chain: T4 sequence
With B1, the binding entry in experiment [1] and in experiment [2] was “binds” throughout.

B2: APE1L-Cluc (enzyme, UniProt Q5XF07 1-364)
chain: T4 sequence
Regarding B2, the binding result in experiment [3] was “binds”.

B3: His-tagged ROS1 (His-ROS1) (enzyme, UniProt Q9SJQ6 1-1393)
chain: T1 sequence
Take B3: the binding entry in experiment [4] is listed as “binds”.
